In PubChem BioAssay AID2685 (National Center for Advancing Translational Sciences (NCATS), 2010):
The list shows a part of the results. These are further read-outs of the screen, such as a control signal, another cell line or another target. No call is given for them. The list favours compounds with an active or inconclusive main result. The note in brackets gives the kind of curve behind each potency; many fits are weak.

Assay: qHTS Assay for Lipid Storage Modulators in Drosophila S3 Cells;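 as to cell number change: cells counted by Cell Tracker Red CMTPX staining in the red channel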
Settings: BODIPY lipid droplet fluorescence, 18-24 h; for cell number change: measured here: cell count max response, cells fed with added oleic acid
How it was run: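 Drosophila S3 cells loaded with oleic acid (400 uM, as added) and compounds at several concentrations; lipid droplets imaged by 488-nm laser-scanning cytometry, 500–530 nm intensity and object ratio to cell channel. Percent activity normalized to 20 uM Triacsin C.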

[1] = measured here: cell number channel AC50, cells fed with added oleic acid
[2] = measured here: lipid fluorescence (Fed channel) AC50, cells fed with added oleic acid

| SMILES | AC50 [1] | cell number change [%] | AC50 [2] |
| --- | --- | --- | --- |
| COCCNC(=O)c1ccc2c(=O)n(Cc3ccco3)c(SCC(=O)NC3CCCC3)nc2c1 | 6.51 µM [rising, partial curve] | – | – |
| CCOc1ccc(CC(=O)NNC(=O)NC2CCCCC2)cc1 | 29.1 µM [falling, single point] | -43.1 | 20.6 µM [falling, single point] |
| CCCCC(=O)Nc1nc2c(s1)COc1ccccc1-2 | – | -2.31 | – |
| CCCCn1cnc2c1c(=O)n(CC(=O)c1cc(C)n(C)c1C)c(=O)n2CC(C)C | 29.1 µM [rising, single point] | 65.3 | – |
| O=C(NCc1ccccc1)C(c1c(F)cccc1Cl)N(C(=O)c1csnn1)C1CC1 (configuration not stated) | – | 0.806 | – |
| Nc1nc(C(F)(F)F)c(Br)c(=O)n1N | – | -12.2 | – |
| Cc1cc(=O)oc2cc3c(cc12)OCCO3 | – | 4.28 | 14.6 µM [falling, partial curve] |
| CC(=O)Nc1ccc(CN2CCCC(C(=O)c3cccc(C(F)(F)F)c3)C2)cc1 (configuration not stated) | – | 2.35 | – |
| Nc1ccn(Cc2ccc(F)cc2)n1 | – | 11.5 | – |
| Nc1nnc(SCC(=O)OCc2ccccc2)s1 | – | -4.16 | 0.00517 µM [falling, full curve, poor fit] |
| Cc1cc(C)cc(NC(=O)CSc2nc3nc(C)cc(C)c3c(=O)[nH]2)c1 | – | 10.8 | 1.3 µM [rising, full curve, poor fit] |
| CCN(CC)CCCNC(=O)C(C)n1nc(C)c2sc3ccccc3c2c1=O (configuration not stated) | 5.8 µM [falling, full curve] | -58.4 | – |
| O=C(c1cccs1)c1coc2ccc(O)cc12 | 2.06 µM [falling, full curve] | -44.7 | – |
| Cc1ccc(C)c(NC(=O)CCC(=O)NNS(=O)(=O)c2ccc(Cl)cc2)c1 | 3.66 µM [falling, full curve] | -34 | 0.326 µM [falling, full curve] |
| Cc1cc(-c2ccccc2)oc(=O)c1NC(=O)c1ccccc1 | – | -11.1 | 35.5 µM [falling, single point] |
| COc1ccccc1/C=C/C(=O)N1CCc2cc(OC)c(OC)cc2C1C (configuration not stated) | – | -6.88 | 6.51 µM [falling, single point] |
| COC(=O)C1=C(C(=O)OC)[C@@H]2N(C)c3ccccc3[C@@]23C[C@@H](C(=O)OC)N(C(=O)c2cc(C)oc2C)C3=N1 | 4.11 µM [falling, partial curve] | -66.3 | 2.59 µM [falling, full curve] |
| O=C(/C=C/c1c(F)cccc1Cl)Nc1ccc(S(=O)(=O)Nc2ncccn2)cc1 | – | 3.47 | 35.5 µM [rising, single point] |
| C/C(=N/O)c1no[n+]([O-])c1/C(C)=N\O | – | 17.6 | 3.66 µM [falling, single point] |
| O=C(COc1ccc(C(=O)c2ccccc2)cc1)NC1CCCCCC1 | 1.46 µM [falling, partial curve] | 0.585 | 23.1 µM [falling, single point] |
| CC(C)Nc1nc(SC(C)C(=O)Nc2ccccc2)nc(N(C)C)n1 (configuration not stated) | – | – | 0.731 µM [falling, full curve] |

Quoted at random: two entries already listed

| SMILES | AC50 [1] | cell number change [%] | AC50 [2] |
| --- | --- | --- | --- |
| CCCCn1cnc2c1c(=O)n(CC(=O)c1cc(C)n(C)c1C)c(=O)n2CC(C)C | 29.1 µM [rising, single point] | 65.3 | – |
| O=C(NCc1ccccc1)C(c1c(F)cccc1Cl)N(C(=O)c1csnn1)C1CC1 (configuration not stated) | – | 0.806 | – |

Following part.

| SMILES | AC50 [1] | cell number change [%] | AC50 [2] |
| --- | --- | --- | --- |
| CCCCCCCCCn1cc(C(C)=O)c(=O)[nH]c1=O | 0.58 µM [falling, single point] | – | – |
| COc1ccccc1C1=Nn2c(nnc2C2CCCCC2)SC1 | – | -11.4 | 2.31 µM [rising, partial curve] |
| CC1(C2CC(C(F)(F)F)n3nc(C(=O)O)cc3N2)CC1 (configuration not stated) | – | -15.6 | 29.1 µM [falling, single point] |
| CC(=O)c1ccc(N2CCN(C(=O)c3ccc4nc[nH]c4c3)CC2)cc1 | 11.6 µM [rising, partial curve, poor fit] | 31.5 | 9.2 µM [rising, partial curve, poor fit] |
| Cn1c2ccccc2c2ncn(CCC3=CCCCC3)c(=O)c21 | – | -0.908 | – |
| COCCCNC(=O)c1cc2c(=O)n(C)c3ccccc3c2n1C | – | – | 2.31 µM [rising, single point] |
| C=CCSc1nc2c(c(=O)[nH]c(=O)n2C)n1CC | 6.51 µM [rising, partial curve, poor fit] | – | – |
| NC(=O)C1CCN(CC(O)COCc2ccccc2Cl)CC1 (configuration not stated) | – | 6.76 | 0.58 µM [rising, single point] |
| CCOc1ccc(N=Nc2ccc(O)c3ncccc23)cc1 | – | -7.67 | 18.4 µM [rising, partial curve, poor fit] |
| O=C(C1CCCO1)N1CCN(S(=O)(=O)c2cc(C(F)(F)F)ccc2Cl)CC1 (configuration not stated) | – | -26.9 | – |
| C/C(=N\NC(=O)c1nnn(-c2nonc2N)c1-c1cccs1)c1ccc(O)cc1 | – | -3.54 | 6.51 µM [falling, single point] |
| CCCCC(=O)Nc1cnc(NC(=O)c2ccco2)cc1C | – | 13.2 | 18.4 µM [rising, single point] |
| Cc1ccc(NC(=O)Nc2cccs2)cc1 | – | 10.6 | 6.51 µM [rising, single point] |
| COc1cc2c(cc1NC(=O)C(c1ccccc1)c1ccccc1)CCCC2 | – | 74.9 | 0.651 µM [rising, full curve] |
| Cc1ccc(CNC(=S)N2CCOCC2)cc1 | 1.3 µM [rising, single point] | 41.8 | 18.4 µM [rising, single point] |
| Cc1ccc(NC(=O)c2sc3nc(C)nc(N4CCN(c5ccccn5)CC4)c3c2C)c(C)c1 | – | 21.6 | 1.16 µM [rising, partial curve, poor fit] |
| C/C(=N/Nc1nc(C)cc(-c2ccccc2)n1)c1ccco1 | 0.461 µM [rising, full curve] | -4.86 | 6.51 µM [rising, partial curve] |
| CC(C)(C)n1nnnc1C(c1ccncc1)N1CCN(C2CCCCC2)CC1 (configuration not stated) | – | 10.3 | 6.51 µM [falling, partial curve] |
| Cc1ccc(C)c(NC(=O)NNC(=O)CCc2ccccc2)c1 | – | – | 1.16 µM [rising, full curve] |
| COc1ccc(S(=O)(=O)NCCSCc2cccc(C)c2)cc1Br | 23.1 µM [rising, partial curve, poor fit] | 123 | 0.517 µM [rising, partial curve, poor fit] |
